# Reference: PubChem BioAssay AID330 (DTP/NCI, 2004)
# The list does not hold the whole screen: it gathers tests that were run many times, whatever their T/C, doses with no T/C, and many T/C values between a quarter and a half above the control. Further doses and runs are listed elsewhere. T/C gives the treated animals as a percentage of the vehicle group. Some entries give survivors of the animals treated and no T/C: the source files T/C as zero there, which appears to mark a toxic dose or a test without result, not a measured value. Some survivor counts are full or nearly so, which does not show that the dose was tolerated: the source hardly ever lists a survival T/C far under the control, and the zero likely stands for such cases as well. Counts of survivors are from the toxicity check (mostly the fifth day) where no day follows; animals may have died later. Schedule codes are those of the source, taken here to give the interval after Q, in days (D) or hours (H), and the number of doses after X. For survival time, the PubChem record calls one and a half times the control and up active, and a quarter to a half above the control has no call in these data; cut-offs in other NCI protocols can differ. Some T/C values are followed by the survivors on the day toxicity was checked, most often the fifth; where none is given, no animal had died by that day.
# Test system: P388 leukemia ip, CD2F1 mice, survival T/C
# Assay: NCI In Vivo Anticancer Drug Screen. Data for tumor model P388 Leukemia (intraperitoneal) in CD2F1 (CDF1) mice
# Conditions: T/C endpoint: median survival time, higher T/C = longer survival
# [1] = dose: 25.0 mg/kg/injection, schedule: Q01DX009 (ip), vehicle: Klucel (hydroxypropylcellulose) (HPC)
# [2] = dose: 100.0 mg/kg/injection, schedule: Q01DX009 (ip), vehicle: Klucel (hydroxypropylcellulose) (HPC)
# [3] = dose: 200.0 mg/kg/injection, schedule: Q01DX009 (ip), vehicle: Klucel (hydroxypropylcellulose) (HPC)
# [4] = dose: 200.0 mg/kg/injection, schedule: Q01DX009 (ip), vehicle: saline with Tween-80
# [5] = dose: 240.0 mg/kg/injection, schedule: Q01DX005 (ip), vehicle: saline with Tween-80
# [6] = dose: 100.0 mg/kg/injection, schedule: Q01DX009 (ip), vehicle: saline with Tween-80
# [7] = dose: 400.0 mg/kg/injection, schedule: Q04DX003 (ip), vehicle: Klucel (hydroxypropylcellulose) (HPC)
# [8] = dose: 12.5 mg/kg/injection, schedule: Q01DX009 (ip), vehicle: Klucel (hydroxypropylcellulose) (HPC)
smiles,measurement,setting,value
CNC(=O)OCc1c(COC(=O)NC)c2n(c1C)CCc1ccccc1-2,T/C,"dose: 3.12 mg/kg/injection, schedule: Q01DX009 (ip), vehicle: distilled water + Tween-80",138 % of control
same,T/C,"dose: 6.25 mg/kg/injection, schedule: Q01DX009 (ip), vehicle: distilled water + Tween-80",138 % of control
same,T/C,"dose: 12.5 mg/kg/injection, schedule: Q01DX009 (ip), vehicle: distilled water + Tween-80",140 % of control
same,survivor count,"dose: 50.0 mg/kg/injection, schedule: Q01DX009 (ip), vehicle: distilled water + Tween-80",6 of 6
same,survivor count,"dose: 100.0 mg/kg/injection, schedule: Q01DX009 (ip), vehicle: distilled water + Tween-80",1 of 6
same,survivor count,"dose: 200.0 mg/kg/injection, schedule: Q01DX009 (ip), vehicle: distilled water + Tween-80",0 of 6
CN(C)CCC(=O)c1cccs1,survivor count,"dose: 200.0 mg/kg/injection, schedule: Q01DX009 (ip), vehicle: saline",0 of 6
same,survivor count,"dose: 400.0 mg/kg/injection, schedule: Q01DX009 (ip), vehicle: saline",0 of 6
CCCCCCCCCC(C)CC(=O)NCCCN(C)CCCCN(C)C (stereo unspecified) (tested in a mixture with another compound),survivor count,[1],0 of 6
same,survivor count,"dose: 50.0 mg/kg/injection, schedule: Q01DX009 (ip), vehicle: Klucel (hydroxypropylcellulose) (HPC)",0 of 6
same,survivor count,[2],0 of 6
same,survivor count,[3],0 of 6
O=C1c2ccccc2C(=O)N1CCCN1CCOCCOCCN(CCCN2C(=O)c3ccccc3C2=O)CCOCCOCC1,survivor count,"dose: 200.0 mg/kg/injection, schedule: Q04DX002 (ip), vehicle: saline + Tween-80 + alcohol",1 of 6
same,survivor count,"dose: 400.0 mg/kg/injection, schedule: Q04DX002 (ip), vehicle: saline + Tween-80 + alcohol",0 of 6
O=C(NP1(=O)NCc2ccccc2CN1)OC1CCCCC1,survivor count,"dose: 50.0 mg/kg/injection, schedule: Q01DX005 (ip), vehicle: Klucel (hydroxypropylcellulose) (HPC)",5 of 5
same,survivor count,"dose: 100.0 mg/kg/injection, schedule: Q01DX005 (ip), vehicle: Klucel (hydroxypropylcellulose) (HPC)",5 of 5
same,survivor count,"dose: 200.0 mg/kg/injection, schedule: Q01DX005 (ip), vehicle: Klucel (hydroxypropylcellulose) (HPC)",4 of 4
CC1=C2C(=O)[C@H]3[C@@H](CC=C4C[C@@H](O)CC[C@@]43C)[C@@H]2CC[C@]12O[C@@H]1C[C@H](C)CN[C@H]1[C@H]2C,survivor count,[4],6 of 6
Nc1nnc2nc(CC(=O)c3cccc([N+](=O)[O-])c3Cl)c(=O)[nH]n12,survivor count,"dose: 120.0 mg/kg/injection, schedule: Q01DX005 (ip), vehicle: saline with Tween-80",0 of 6
same,survivor count,[5],0 of 6
O=C1C(Cl)=C(Nc2cccc3ccccc23)C(=O)c2ccccc21,survivor count,"dose: 100.0 mg/kg/injection, schedule: Q01DX005 (ip), vehicle: saline with Tween-80",3 of 6
same,survivor count,"dose: 200.0 mg/kg/injection, schedule: Q01DX005 (ip), vehicle: saline with Tween-80",0 of 6
Nc1cc(C(=O)Nc2ccc(C3=NCCN3)cc2)cc(C(=O)Nc2ccc(C3=NCCN3)cc2)c1,T/C,"dose: 16.0 mg/kg/injection, schedule: Q01DX010 (ip), vehicle: saline",145 % of control
same,survivor count,"dose: 64.0 mg/kg/injection, schedule: Q01DX010 (ip), vehicle: saline",3 of 6
same,survivor count,"dose: 128.0 mg/kg/injection, schedule: Q01DX010 (ip), vehicle: saline",0 of 6
O=C1N(Cl)C(=O)C(c2ccc(Cl)cc2)(c2ccc(Cl)cc2)N1Cl,T/C,"dose: 25.0 mg/kg/injection, schedule: Q01DX009 (ip), vehicle: saline with Tween-80",127 % of control
same,T/C,"dose: 50.0 mg/kg/injection, schedule: Q01DX009 (ip), vehicle: saline with Tween-80",145 % of control [5 of 6 alive]
same,survivor count,[6],5 of 6
same,survivor count,[4],5 of 6
O=S(=O)(c1cc(Cl)c(Cl)cc1Cl)N(CCCCCN(S(=O)(=O)c1cc(Cl)c(Cl)cc1Cl)S(=O)(=O)c1cc(Cl)c(Cl)cc1Cl)S(=O)(=O)c1cc(Cl)c(Cl)cc1Cl,survivor count,"dose: 240.0 mg/kg/injection, schedule: Q01DX005 (ip), vehicle: Klucel (hydroxypropylcellulose) (HPC)",5 of 6
Cc1ccc(S(=O)(=O)N/N=C/c2c(Cl)n(C(=O)c3cccc(C)c3)c3ccccc23)cc1,survivor count,"dose: 100.0 mg/kg/injection, schedule: Q01DX001 (ip), vehicle: Klucel (hydroxypropylcellulose) (HPC)",6 of 6
same,survivor count,"dose: 200.0 mg/kg/injection, schedule: Q01DX001 (ip), vehicle: Klucel (hydroxypropylcellulose) (HPC)",5 of 6
same,survivor count,"dose: 400.0 mg/kg/injection, schedule: Q01DX001 (ip), vehicle: Klucel (hydroxypropylcellulose) (HPC)",6 of 6
O=C(O)COc1ccc(I)cc1I,survivor count,[7],2 of 4
COc1cc(/C=N/NC(=O)CN(C)C)cc(OC)c1N(CCCl)CCCl,T/C,[8],136 % of control
same,T/C,[1],149 % of control
CCCC(=O)OC1C=C2N3C(=O)C4CC56C(=CC(OC(C)=O)C7OC75)N4C(=O)C3CC26C2OC12 (stereo unspecified),survivor count,"dose: 8.0 mg/kg/injection, schedule: Q01DX005 (ip), vehicle: Klucel (hydroxypropylcellulose) (HPC)",5 of 6
same,survivor count,"dose: 16.0 mg/kg/injection, schedule: Q01DX005 (ip), vehicle: Klucel (hydroxypropylcellulose) (HPC)",1 of 6
same,survivor count,"dose: 32.0 mg/kg/injection, schedule: Q01DX005 (ip), vehicle: Klucel (hydroxypropylcellulose) (HPC)",0 of 6
O=C1C(Cl)=CC(=NS(=O)(=O)c2ccccc2)C=C1Cl,survivor count,"dose: 12.5 mg/kg/injection, schedule: Q04DX003 (ip), vehicle: saline with Tween-80",2 of 6
same,survivor count,"dose: 25.0 mg/kg/injection, schedule: Q04DX003 (ip), vehicle: saline with Tween-80",1 of 6
NC(=O)c1ccccc1NCCc1ccccc1,survivor count,"dose: 200.0 mg/kg/injection, schedule: Q04DX003 (ip), vehicle: saline with Tween-80",6 of 6
CCCCCCCCCCCCCCCCCSCc1ccc(Nc2ccccc2)cc1,T/C,[6],131 % of control
COc1c(CO)c2c(c(OC)c1OC)-c1ccc(OC)c(=O)cc1[C@@H](NC(C)=O)CC2,T/C,[8],136 % of control
same,survivor count,[2],4 of 6
same,survivor count,[3],2 of 6
Nc1c(Br)cc(Br)c2[nH]c(=O)c3ccccc3c12,survivor count,[5],4 of 6
N#[N+]N=c1c(=NN=[N-])c(=O)c2ccccc2c1=O,T/C,"dose: 25.0 mg/kg/injection, schedule: Q01DX001 (ip), vehicle: saline with Tween-80",137 % of control [5 of 6 alive]
same,survivor count,"dose: 50.0 mg/kg/injection, schedule: Q01DX001 (ip), vehicle: saline with Tween-80",0 of 6
same,survivor count,"dose: 100.0 mg/kg/injection, schedule: Q01DX001 (ip), vehicle: saline with Tween-80",0 of 6
same,survivor count,"dose: 200.0 mg/kg/injection, schedule: Q01DX001 (ip), vehicle: saline with Tween-80",0 of 6
Cc1ccoc1OP(=O)(N(C)C)N(C)C,survivor count,"dose: 60.0 mg/kg/injection, schedule: Q01DX005 (ip), vehicle: saline",4 of 6
same,survivor count,"dose: 120.0 mg/kg/injection, schedule: Q01DX005 (ip), vehicle: saline",0 of 6
same,survivor count,"dose: 240.0 mg/kg/injection, schedule: Q01DX005 (ip), vehicle: saline",0 of 6
COc1cc(/C=C/C2=C(C)C(=O)CC(c3cc(OC)cc(OC)c3)C2C)cc(OC)c1 (stereo unspecified),survivor count,"dose: 75.0 mg/kg/injection, schedule: Q04DX003 (ip), vehicle: Klucel (hydroxypropylcellulose) (HPC)",6 of 6
same,survivor count,"dose: 150.0 mg/kg/injection, schedule: Q04DX003 (ip), vehicle: Klucel (hydroxypropylcellulose) (HPC)",6 of 6
same,survivor count,"dose: 300.0 mg/kg/injection, schedule: Q04DX003 (ip), vehicle: Klucel (hydroxypropylcellulose) (HPC)",6 of 6
Cc1c(-c2ccccc2)nc(N)n1C,survivor count,"dose: 100.0 mg/kg/injection, schedule: Q04DX002 (ip), vehicle: saline",0 of 6
same,survivor count,"dose: 200.0 mg/kg/injection, schedule: Q04DX002 (ip), vehicle: saline",0 of 6
same,survivor count,"dose: 400.0 mg/kg/injection, schedule: Q04DX002 (ip), vehicle: saline",0 of 6
CCOC(=O)Cn1cnc2cc(Cl)c([N+](=O)[O-])cc2c1=O,T/C,[7],130 % of control
